Measured values as given in patent US20080058272A1, “Nonamer Peptides for Cancer Treatment” (priority 2006, published 2008).
These are yes or no findings as the source states them, for the method shown. Binding calls can cover weak binding; strength is not graded here.

The binders below were run against HLA-A2 (human) (assay: recombinant HLA-A2/peptide complexes (multimers)).

| binding | Binder |
| --- | --- |
| binds | GLFKCGIAV [FAPα^639-647] |

The binders below were run against HLA-A2 (human) (assay: competitive binding assay on acid-stripped JY cells, flow cytometry).

| Binder | binding |
| --- | --- |
| GLSPDRQFV [FAPα^104-112] | binds |
| ALVCYGPGI [FAPα^463-471] | binds |
| YLESDYSKL [FAPα^113-121] | binds |

Results, then the binder that gave them:

| binding | Binder |
| --- | --- |
| binds | KILEENKEL [FAPα^486-494] |
| binds | YLASKEGMV [FAPα^560-568] |
| binds | GLFKCGIAV [FAPα^639-647] |
| binds | LLYAVYRKL [FAPα^584-592] |
